This passage reports binding results from article PMC8040806.

The target in the assay is T1, Gcn20-TAP (S. cerevisiae) (UniProt P43535).
T1 sequence: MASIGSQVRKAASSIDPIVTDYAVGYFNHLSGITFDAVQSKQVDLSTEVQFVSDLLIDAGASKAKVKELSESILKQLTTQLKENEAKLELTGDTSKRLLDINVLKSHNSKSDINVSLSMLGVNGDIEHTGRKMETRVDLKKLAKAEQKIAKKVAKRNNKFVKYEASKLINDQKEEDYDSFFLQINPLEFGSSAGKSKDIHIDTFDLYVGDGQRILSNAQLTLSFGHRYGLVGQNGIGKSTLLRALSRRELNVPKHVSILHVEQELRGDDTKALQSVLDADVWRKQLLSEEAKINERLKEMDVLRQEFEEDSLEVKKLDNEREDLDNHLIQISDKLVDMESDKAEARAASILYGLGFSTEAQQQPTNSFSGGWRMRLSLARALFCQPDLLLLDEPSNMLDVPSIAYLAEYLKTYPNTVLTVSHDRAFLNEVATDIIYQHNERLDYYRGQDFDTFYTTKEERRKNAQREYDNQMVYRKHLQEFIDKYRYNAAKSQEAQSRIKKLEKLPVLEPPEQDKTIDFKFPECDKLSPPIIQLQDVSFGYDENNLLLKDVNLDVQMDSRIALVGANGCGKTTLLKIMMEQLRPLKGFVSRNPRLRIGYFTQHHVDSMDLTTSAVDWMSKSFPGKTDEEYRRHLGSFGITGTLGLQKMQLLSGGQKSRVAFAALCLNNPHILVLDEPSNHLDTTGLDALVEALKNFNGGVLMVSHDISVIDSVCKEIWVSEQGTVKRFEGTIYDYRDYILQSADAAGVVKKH
The assay can be described thus: affinity purification with mass spectrometry; TAP-tag in vivo pull-out from cleared lysate of the GCN20-TAP strain on IgG-coated magnetic Dynabeads, 1 h at 4 °C; eluted with AcTEV protease 2 h at 17 °C in 20 mM Hepes pH 7.4, 100 mM KOAc, 10 mM Mg(OAc)2, 1 mM DTT, 1 mM ADPNP; analysed by SDS-PAGE, immunoblot and mass spectrometry; cells with and without 3-AT.

No constants are given. Whether binding was seen depends on the method and setting. Binding seen in cells or lysates may run through a third protein. These calls come from enrichment with a bait or labelling near it, and not all partners need be listed.

For the molecule eIF5A, the binding result is “binds”.

B1: ribosome binding GTPase 2 (Rbg2) (protein, UniProt P53295 1-368)
chain: MGIIDKIKAIEEEMARTQKNKATEHHLGLLKGKLARYRQQLLADEAGSGGGGGSGFEVAKSGDARVVLIGYPSVGKSSLLGKITTTKSEIAHYAFTTLTSVPGVLKYQGAEIQIVDLPGIIYGASQGKGRGRQVVATARTADLVLMVLDATKSEHQRASLEKELENVGIRLNKEKPNIYYKKKETGGVKVTFTSPPKTNLTEQAIKMILRDYRIHNAEVLVRDDQCTIDDFIDVINEQHRNYVKCLYVYNKIDAVSLEEVDKLAREPNTVVMSCEMDLGLQDVVEEIWYQLNLSRVYTKKRGVRPVFDDPLVVRNNSTIGDLCHGIHRDFKDKFKYALVWGSSAKHSPQKCGLNHRIDDEDVVSLFAK
Consider B1, for which the binding result is “binds”.
